Values are relative to the signal before dosing, not to a vehicle control; the signal also falls without drug.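 Fibroblast labels name human fibroblasts: mostly primary ones from tissues such as uterus (C12385, HUF), lung (H6013), bone (Hs27A), adrenal (HADF) and skin (WS1), plus mammary HMF and breast cancer-associated Hs343T. The cancer cells are basal-like or mesenchymal-like triple-negative breast cancer lines. The paper calls a changed response a hit when it shifts by more than 3x the replicate standard deviation. The tissue of the other fibroblasts is not given here.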
Tested on: Hs578T
Experiment: relative JC-1 red fluorescence (viability) vs pre-drug, coculture with fibroblast (fraction); higher = more viable cancer cells
Experimental: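 JC-1 labelled TNBC cells cocultured 1:1 (1,500 cells each) with CellTrace Violet stained primary or stromal fibroblasts in 384-well plates in FluoroBrite medium, treated with one of 42 anticancer drugs at 0.1, 1, 10 or 100 uM. JC-1 red fluorescence (mitochondrial integrity in cancer cells only) was read by plate reader every 8 h for 72 h. Values are normalised to each well's pre-drug value. The stock of one drug was tenfold lower, so its dose labels may be too high.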

O=C(O)C(=O)O.[NH-][C@@H]1CCCC[C@H]1[NH-].[Pt+2] [Oxaliplatin]
relative JC-1 red fluorescence
Details | 8 h | 16 h | 24 h | 32 h | 40 h | 48 h | 56 h | 64 h | 72 h
0.1 µM | 0.881 | 0.797 | 0.763 | 0.738 | 0.679 | 0.642 | 0.624 | 0.592 | 0.58
1 µM | 0.937 | 0.816 | 0.739 | 0.695 | 0.631 | 0.583 | 0.556 | 0.509 | 0.489

relative JC-1 red fluorescence
Details | 8 h | 16 h | 24 h | 32 h | 40 h | 48 h | 56 h | 64 h | 72 h
0.1 µM, coculture fibroblast: C12385 | 0.821 | 0.732 | 0.678 | 0.587 | 0.525 | 0.498 | 0.478 | 0.47 | 0.474
0.1 µM, coculture fibroblast: H6013 | 0.867 | 0.811 | 0.765 | 0.742 | 0.715 | 0.7096 | 0.6951 | 0.7041 | 0.6832
0.1 µM, coculture fibroblast: H6019 | 0.8139 | 0.7281 | 0.72 | 0.628 | 0.598 | 0.574 | 0.546 | 0.528 | 0.513
0.1 µM, coculture fibroblast: H6076 | 0.9 | 0.81 | 0.761 | 0.747 | 0.6958 | 0.6895 | 0.6727 | 0.674 | 0.678
0.1 µM, coculture fibroblast: H6231 | 0.872 | 0.777 | 0.707 | 0.6576 | 0.583 | 0.562 | 0.514 | 0.513 | 0.508
0.1 µM, coculture fibroblast: HADF | 0.854 | 0.809 | 0.753 | 0.717 | 0.7 | 0.691 | 0.679 | 0.688 | 0.677
0.1 µM, coculture fibroblast: HCFa | 0.8435 | 0.786 | 0.735 | 0.69 | 0.645 | 0.64 | 0.624 | 0.62 | 0.599
0.1 µM, coculture fibroblast: HCPF | 0.9 | 0.794 | 0.734 | 0.7 | 0.643 | 0.619 | 0.593 | 0.564 | 0.548
0.1 µM, coculture fibroblast: HHSteC | 0.854 | 0.786 | 0.728 | 0.686 | 0.638 | 0.612 | 0.593 | 0.583 | 0.566
0.1 µM, coculture fibroblast: HMF | 0.869 | 0.792 | 0.733 | 0.709 | 0.648 | 0.62 | 0.584 | 0.572 | 0.562
0.1 µM, coculture fibroblast: HPFa | 0.869 | 0.824 | 0.779 | 0.733 | 0.72 | 0.706 | 0.683 | 0.671 | 0.638
0.1 µM, coculture fibroblast: HUF | 0.827 | 0.725 | 0.712 | 0.592 | 0.531 | 0.503 | 0.481 | 0.488 | 0.49
0.1 µM, coculture fibroblast: Hs27A | 0.8733 | 0.844 | 0.816 | 0.788 | 0.744 | 0.755 | 0.734 | 0.746 | 0.71
0.1 µM, coculture fibroblast: Hs343T | 0.88 | 0.791 | 0.73 | 0.712 | 0.648 | 0.624 | 0.589 | 0.578 | 0.591
0.1 µM, coculture fibroblast: WS1 | 0.7655 | 0.664 | 0.667 | 0.5632 | 0.522 | 0.524 | 0.504 | 0.516 | 0.533
1 µM, coculture fibroblast: C12385 | 0.828 | 0.714 | 0.643 | 0.553 | 0.49 | 0.462 | 0.439 | 0.431 | 0.429
1 µM, coculture fibroblast: H6013 | 0.8954 | 0.811 | 0.768 | 0.745 | 0.716 | 0.706 | 0.686 | 0.686 | 0.668
1 µM, coculture fibroblast: H6019 | 0.768 | 0.677 | 0.632 | 0.539 | 0.494 | 0.464 | 0.428 | 0.403 | 0.376
1 µM, coculture fibroblast: H6076 | 0.929 | 0.807 | 0.751 | 0.725 | 0.673 | 0.656 | 0.629 | 0.618 | 0.61
1 µM, coculture fibroblast: H6231 | 0.89825 | 0.819 | 0.75 | 0.712 | 0.658 | 0.623 | 0.577 | 0.552 | 0.535
1 µM, coculture fibroblast: HADF | 0.9199 | 0.847 | 0.777 | 0.716 | 0.648 | 0.6 | 0.555 | 0.52 | 0.485
1 µM, coculture fibroblast: HCFa | 0.876 | 0.786 | 0.721 | 0.658 | 0.579 | 0.553 | 0.508 | 0.487 | 0.445
1 µM, coculture fibroblast: HCPF | 0.965 | 0.893 | 0.851 | 0.807 | 0.754 | 0.733 | 0.7028 | 0.6657 | 0.638
1 µM, coculture fibroblast: HHSteC | 0.885 | 0.783 | 0.729 | 0.682 | 0.634 | 0.604 | 0.577 | 0.552 | 0.517
1 µM, coculture fibroblast: HMF | 0.8887 | 0.7773 | 0.7266 | 0.6958 | 0.645 | 0.617 | 0.585 | 0.559 | 0.546
1 µM, coculture fibroblast: HPFa | 0.934 | 0.829 | 0.756 | 0.69 | 0.638 | 0.6 | 0.547 | 0.521 | 0.465
1 µM, coculture fibroblast: HUF | 0.881 | 0.756 | 0.72 | 0.623 | 0.563 | 0.523 | 0.487 | 0.466 | 0.4535
1 µM, coculture fibroblast: Hs27A | 0.886 | 0.844 | 0.80598 | 0.7742 | 0.723 | 0.706 | 0.668 | 0.653 | 0.595
1 µM, coculture fibroblast: Hs343T | 0.949 | 0.818 | 0.729 | 0.688 | 0.598 | 0.562 | 0.512 | 0.487 | 0.472
1 µM, coculture fibroblast: WS1 | 0.82 | 0.726 | 0.666 | 0.573 | 0.519 | 0.507 | 0.468 | 0.458 | 0.456
